# Measured values reported in article PMC7953756.
# The chains behind the UniProt entries cited, without tags or fusion partners. Residues count along the entry.
# UniProt P10721, residues 26-976: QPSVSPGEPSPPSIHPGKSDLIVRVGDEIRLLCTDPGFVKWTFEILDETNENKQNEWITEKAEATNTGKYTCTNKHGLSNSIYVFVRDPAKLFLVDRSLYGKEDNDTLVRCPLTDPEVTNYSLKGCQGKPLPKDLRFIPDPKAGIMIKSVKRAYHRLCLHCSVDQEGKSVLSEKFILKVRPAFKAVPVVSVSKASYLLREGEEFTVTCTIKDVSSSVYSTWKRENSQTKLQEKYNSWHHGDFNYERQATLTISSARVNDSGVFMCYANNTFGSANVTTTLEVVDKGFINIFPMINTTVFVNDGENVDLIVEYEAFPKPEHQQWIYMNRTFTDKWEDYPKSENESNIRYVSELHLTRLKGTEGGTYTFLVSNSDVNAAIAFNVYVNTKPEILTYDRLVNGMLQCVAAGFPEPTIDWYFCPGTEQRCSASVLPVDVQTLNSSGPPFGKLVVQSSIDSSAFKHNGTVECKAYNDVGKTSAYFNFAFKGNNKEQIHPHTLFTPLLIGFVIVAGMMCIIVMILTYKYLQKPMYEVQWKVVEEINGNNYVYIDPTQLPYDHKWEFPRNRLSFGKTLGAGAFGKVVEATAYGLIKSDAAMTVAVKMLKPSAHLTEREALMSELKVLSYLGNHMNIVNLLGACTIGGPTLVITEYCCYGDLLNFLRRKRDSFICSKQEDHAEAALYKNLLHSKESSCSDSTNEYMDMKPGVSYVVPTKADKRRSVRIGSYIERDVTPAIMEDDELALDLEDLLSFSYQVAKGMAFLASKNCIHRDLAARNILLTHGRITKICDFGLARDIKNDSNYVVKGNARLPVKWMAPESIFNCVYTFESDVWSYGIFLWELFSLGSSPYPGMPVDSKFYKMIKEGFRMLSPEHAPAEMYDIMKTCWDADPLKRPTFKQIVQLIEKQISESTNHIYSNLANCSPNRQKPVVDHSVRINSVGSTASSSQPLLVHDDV
# Results are given in words; binding and its absence hold for the method and conditions named. Binding seen in cells or lysates may run through a third protein. Some entries that bind do so weakly or less than the wild type.
# B1: suppressor of cytokine signaling 6 (SOCS6) (protein, UniProt O14544 1-535)
# chain: MKKISLKTLRKSFNLNKSKEETDFMVVQQPSLASDFGKDDSLFGSCYGKDMASCDINGEDEKGGKNRSKSESLMGTLKRRLSAKQKSKGKAGTPSGSSADEDTFSSSSAPIVFKDVRAQRPIRSTSLRSHHYSPAPWPLRPTNSEETCIKMEVRVKALVHSSSPSPALNGVRKDFHDLQSETTCQEQANSLKSSASHNGDLHLHLDEHVPVVIGLMPQDYIQYTVPLDEGMYPLEGSRSYCLDSSSPMEVSAVPPQVGGRAFPEDESQVDQDLVVAPEIFVDQSVNGLLIGTTGVMLQSPRAGHDDVPPLSPLLPPMQNNQIQRNFSGLTGTEAHVAESMRCHLNFDPNSAPGVARVYDSVQSSGPMVVTSLTEELKKLAKQGWYWGPITRWEAEGKLANVPDGSFLVRDSSDDRYLLSLSFRSHGKTLHTRIEHSNGRFSFYEQPDVEGHTSIVDLIEHSIRDSENGAFCYSRSRLPGSATYPVRLTNPVSRFMQVRSLQYLCRFVIRQYTRIDLIQKLPLPNKMKDYLQEKHY
# Legend:
# [1] = target: T1, suppressor of cytokine signaling 6 (SOCS6) (human (endogenous in Eca109)) (UniProt O14544); assay: co-IP; reverse direction: IP of SOCS6 from Eca109 cells, Western blot for c-Kit; details of this IP not told
# T1 sequence: B1 chain
# [2] = target: stem cell factor receptor c-Kit (human (endogenous in Eca109)) (UniProt P10721); assay: co-IP; Eca109 cells lysed in ice-cold RIPA buffer, pre-cleared with normal rabbit IgG; IP with rabbit monoclonal anti-c-Kit antibody and Protein A/G PLUS-Agarose at 4 C, 4 washes with RIPA buffer; Western blot for SOCS6
Molecule,binding [1],binding [2]
stem cell factor receptor c-Kit (from UniProt P10721 26-976),binds,–
B1,–,binds
